Reference: PubChem BioAssay AID1259415 (National Center for Advancing Translational Sciences (NCATS), 2018)
The whole screen tested about 410,000 compounds, of which about 18,000 (4.4%) were called active. The inconclusive results got no clear call from the source; some entries with a clear call stand among them for comparison. Cut-off read from the data, not from the text of the source: active = activity change below about -60%; inconclusive = no clear call, values can overlap the other calls; inactive = above about -39%.

assay: qHTS Assay for inhibitors of the human cytomegalovirus (HCMV); details: HFF cells, HCMV-luciferase reporter, 72 h; at 57.5 µM; stronger effect = lower value
Method in brief: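 Luciferase read-out from HCMV-luciferase-infected HFFs (MOI 1 PFU/cell) 72 h post infection at 37C; compounds added after 16 h cell attachment; activity normalized between buffer-only basal and Salinomycin (10uM) inhibitor controls.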
% is set by controls: 0 for no effect and ±100 for the full control effect.

| SMILES | activity change, negative = inhibition |
| --- | --- |
| O=C(Cn1cnc2c(nnn2Cc2ccccc2)c1=O)NCC1CCCO1 (stereo not given) | inconclusive: -55.2% |
| CCOC(=O)N1CCc2c(sc(NC(=O)C3COc4ccccc4O3)c2C(N)=O)C1 (stereo not given) | active: -96.6% |
| Cc1cc(C)cc(NC(=O)C(=O)NCCCN2CCOCC2)c1 | inconclusive: -51.7% |
| COc1cccc(C(=O)OC(C)C(=O)Nc2ccc3c(c2)OCO3)c1 (stereo not given) | inactive: -12.8% |
| O=C(NN1CCOCC1)c1ccc(Cl)cc1 | inconclusive: -45.3% |
| CCOc1ccc(NC(=O)[C@H]2O[C@@H]3OC(C)(C)O[C@@H]3[C@H]3OC(C)(C)O[C@H]32)cc1 | inconclusive: -44% |
| CN(C(=O)COC(=O)c1cccs1)c1ccccc1 | inactive: -13.8% |
| O=C(NC(=S)NCc1ccccc1)c1ccc(Br)o1 | inconclusive: -50% |
| CCOC(=O)C(c1ccccc1)C(Nc1cc(C(F)(F)F)cc(C(F)(F)F)c1)c1ccccn1 (stereo not given) | inactive: -8.29% |
| COc1ccc(N(C)S(=O)(=O)c2ccc3c(c2)NC(=O)CC(=O)N3)c(OC)c1 | inconclusive: -43% |
| Cc1cc(NC(=O)c2ccc(C)o2)no1 | inactive: 60% |
| CCOc1ccccc1CNC(=O)c1cn(-c2ccc(OC)cc2)c(=O)c2ccccc12 | inconclusive: -45.1% |
| Cc1cc(C(=O)Cn2nnc(-c3ccc(Cl)cc3)n2)c(C)n1CC1CCCO1 (stereo not given) | inconclusive: -56.6% |
| N#Cc1ccc2sn(-c3ccccc3)c(=O)c2c1 | inactive: 30.8% |
| COc1cccc(C2=C(C(C)=O)Sc3nnc(C4CCCCC4)n3N2C(C)=O)c1 | active: -73.3% |
| CCC(=O)Nc1ccccc1-c1nc2ccccc2n(C(C)C(=O)Nc2cccc(Cl)c2C)c1=O (stereo not given) | inactive: -12.2% |
| CC(C)c1ccc(Nc2ncnc3c2nc2n3CCCC2)cc1 | inactive: -19.2% |
| O=C(Nc1ccc2c(c1)OCCO2)c1cccc(S(=O)(=O)N2CCCCC2)c1 | inconclusive: -47.7% |
| Cc1c(C=O)c2ccccc2n1CCOc1ccccc1 | inconclusive: -42.8% |
| COc1cccc(C(=O)COC(=O)COc2c(C)cc(C)cc2C)c1 | inactive: 12% |
| Cc1cccc(-n2c(-c3csc4ccccc34)n[nH]c2=S)c1 | active: -69.8% |
| CCCCCC(=O)Nc1cc(S(=O)(=O)O)cc2cc(S(=O)(=O)O)cc(O)c12 | active: -77.5% |

| SMILES | activity change, negative = inhibition |
| --- | --- |
| O=C(CN1c2cccc3cccc(c23)S1(=O)=O)NCCc1ccc(F)cc1 | inconclusive: -47.4% |
| CCOc1ccc(Cn2nnc(-c3ccc(S(C)(=O)=O)cc3)n2)cc1OCC | inactive: 34.5% |
| O=C(CCCn1c(=O)c2ccccc2n(CC(=O)Nc2cccc(Cl)c2)c1=O)NCc1ccc2c(c1)OCO2 | inconclusive: -50.2% |
| CCOc1ccc2oc(=O)cc(CN3CCN(Cc4ccc(F)cc4)CC3)c2c1 | inactive: -12.1% |
| CC(C)(C)n1ncc(Oc2ccccc2[N+](=O)[O-])c(Cl)c1=O | inactive: -28.5% |
| O=C(c1cccs1)N1CCN(C(=O)c2cccs2)C1=S | inconclusive: -57.1% |
| COc1cccc(-c2onc3ccc(C(C)=O)cc23)c1 | active: -70% |
| CCOC(=O)N1CCN(Cc2c(O)ccc3ccccc23)CC1 | inactive: 14.4% |
| CCCOc1ccc(C(=O)CCC(=O)OCC(=O)N2CCN(S(=O)(=O)c3ccc(C)cc3C)CC2)cc1 | inactive: -33.8% |
| COc1ccc(-c2cc(C(C)=O)c(C)n2CCC(=O)Nc2ccc(C)cc2Cl)cc1 | inconclusive: 0% |
| C[C@H](CO)N1C[C@H](C)[C@@H](CN(C)S(=O)(=O)c2ccc(F)cc2)Oc2ccc(NS(=O)(=O)c3ccc(F)cc3)cc2C1=O | inconclusive: -43.3% |
| CC1CCCCC1NC(=O)c1cccc(N2C(=O)C3C4C=CC(C4)C3C2=O)c1 (stereo not given) | inconclusive: -47.7% |
| COc1ccc(NC(=O)Nc2cccc(OCc3cc(=O)n4cccc(C)c4n3)c2)c(OC)c1 | inactive: -19.4% |
| CC(C)CNS(=O)(=O)c1ccc(CCC(=O)N2CCN(c3ccccc3)CC2)cc1 | inconclusive: -42.8% |
| COc1ccccc1OCCCCN1CCC(C)CC1 | inconclusive: -50.3% |
| COc1ccc(-c2cnc3c(NC=O)cc(-c4ccc(F)cc4)cn23)cc1OC | inconclusive: -53.8% |
| O=C(NOCc1ccccc1)OCc1ccccc1 | inactive: 46.5% |
| CC(=O)c1c(-c2ccccc2)c2cc(Cl)ccc2n(C)c1=O | inconclusive: -41.1% |
| CC[C@]12c3[nH]c4cc(-c5ccco5)ccc4c3CCN1C(=O)[C@@H](CC(=O)NCCc1ccccn1)C[C@@H]2C(=O)N1CCN(C(=O)C2CC2)CC1 | inactive: -12.7% |
| CCOC(=O)Cn1c2ccccc2c2nc(C)sc21 | inactive: -35.9% |
| COc1ccc(OC)c(-n2nnnc2SCC(=O)Nc2ccc(C(=O)N3CCCCC3)cc2)c1 | active: -64.1% |
| COc1cc(C#N)c(N=C(SCC#N)N2CCOCC2)cc1OC | inactive: -12% |

| SMILES | activity change, negative = inhibition |
| --- | --- |
| CCOC(=O)c1c(C)[nH]c(C(=O)COC(=O)C2=NNC(=O)CC2)c1C | inconclusive: -44.6% |
| O=C(CSc1ncn[nH]1)NN(c1ccccc1)c1ccccc1 | inconclusive: -54.4% |
| CCC(CC)C(=O)Nc1cccc(C(=O)Nc2ccc(S(=O)(=O)Nc3ccc(C)cc3)cc2)c1 | active: -97.4% |
| COc1ccc(S(=O)(=O)N(C)C[C@H]2Oc3c(NS(=O)(=O)c4cn(C)cn4)cccc3C(=O)N([C@H](C)CO)C[C@@H]2C)cc1 | inactive: -18.1% |
| O=C(Cc1cccs1)Nc1cccc(-c2nnc(-c3ccco3)o2)c1 | inconclusive: -57% |
| CCOc1ccccc1CNC(=O)C(C)n1nc(C)c2c(C)n(-c3ccccc3)nc2c1=O (stereo not given) | inconclusive: -53.4% |
| COc1ccc([N+](=O)[O-])cc1NC(=O)c1cccs1 | inconclusive: -55.6% |
| O=C(Nc1nnc(-c2ccc(F)cc2)o1)c1cccc([N+](=O)[O-])c1 | active: -98.2% |
| CCOC(=O)CNc1nc2ccccc2n2c(C)nnc12 | inconclusive: -50.3% |
| COc1ccc(Nc2nc(NCC3CCCO3)c3ccccc3n2)c(OC)c1 (stereo not given) | active: -90.7% |
| CC(=O)NNC(=S)NC(=O)C(c1ccccc1)c1ccccc1 | inconclusive: -57% |
| O=C(CCc1ccccc1)N1Cc2cc(-c3ccccc3)ccc2-n2nncc2C1 | inconclusive: -49.8% |
| Cc1ccc(-c2nc(CN(CC3CCC3)CC3CCCO3)c(C)o2)s1 (stereo not given) | inconclusive: -41.8% |
| CC1CCC(NC(=O)c2ccc3c(c2)N(Cc2ccccc2)C(=O)c2ccccc2S3(=O)=O)CC1 (stereo not given) | inconclusive: -40.9% |
| COc1ccc(OC)c(NC(=O)CSc2nc3n[nH]c(C)c3c(=N)n2-c2cccc(Cl)c2C)c1 | inconclusive: -40.4% |
| Nc1c(C(=O)NCCN2CCOCC2)c2nc3ccccc3nc2n1-c1ccc2c(c1)OCO2 | inconclusive: -45.4% |
| CN1CCN(CC(O)(c2ccc(Cl)cc2)c2ccc(Cl)cc2)CC1 | inconclusive: -53.2% |
| O=C1ON=C(c2ccccc2)/C1=C/c1ccc(OS(=O)(=O)c2ccccc2)cc1 | inactive: -32% |
| O=C(Nc1ccc2c(c1)C(=O)NC2=O)c1ccc(Cl)s1 | inconclusive: -56.8% |
| Cc1onc(-c2c(F)cccc2Cl)c1C(=O)NC(C)c1ccccc1 (stereo not given) | inconclusive: -50.2% |
| Cc1ccc(C(=O)NCC(=O)NC2CCCCCC2)cc1 | active: -96.7% |
| CCCn1c(C)cc(/C=C(\C#N)C(=O)OCC(=O)Nc2ccc(OC)c(Cl)c2)c1C | inactive: -10.9% |

3 compounds drawn at random from those above, as already listed:

| SMILES | activity change, negative = inhibition |
| --- | --- |
| COc1ccc(Nc2nc(NCC3CCCO3)c3ccccc3n2)c(OC)c1 (stereo not given) | active: -90.7% |
| CCOC(=O)CNc1nc2ccccc2n2c(C)nnc12 | inconclusive: -50.3% |
| CC(=O)NNC(=S)NC(=O)C(c1ccccc1)c1ccccc1 | inconclusive: -57% |

Compounds above with an aryl thioether with sulfur outside any ring:

| SMILES | activity change, negative = inhibition |
| --- | --- |
| COc1ccc(OC)c(-n2nnnc2SCC(=O)Nc2ccc(C(=O)N3CCCCC3)cc2)c1 | active: -64.1% |
| O=C(CSc1ncn[nH]1)NN(c1ccccc1)c1ccccc1 | inconclusive: -54.4% |
| COc1ccc(OC)c(NC(=O)CSc2nc3n[nH]c(C)c3c(=N)n2-c2cccc(Cl)c2C)c1 | inconclusive: -40.4% |

Remaining list, next part

| SMILES | activity change, negative = inhibition |
| --- | --- |
| CCCN(C(=O)c1cn(-c2ccccc2)nc1-c1ccc(OC)cc1)C1CCS(=O)(=O)C1 (stereo not given) | inactive: -3.29% |
| CC(C)NC(=O)C1(C)CCN1C(=O)C1(c2ccccc2)CCCC1 (stereo not given) | inactive: -0.783% |
| C=CCNc1cccc2c1S(=O)(=O)N[C@H](CC(C)C)CO2 | inconclusive: -41.9% |
| Cc1nc(SCC(=O)NC(C)(C)C)c2c(-c3cccs3)csc2n1 | inconclusive: -49% |
| COc1ccc(OC)c(Nc2nc(-c3sc(NC(=O)CC(C)C)nc3C)cs2)c1 | inconclusive: -53.7% |
| Cc1c(Cl)ccc2c1NC(=O)[C@]21[C@@H]2C(=O)N(Cc3ccccc3)C(=O)[C@@H]2[C@@H]2CCCN21 | inactive: 106% |
| Cc1ccc(C(C)C)c(OCCCNCc2cccnc2)c1 | inconclusive: -46.2% |
| CCOCCCNC(=O)CN1C(=O)CSc2cc(S(=O)(=O)N3CCCCCC3)ccc21 | inconclusive: -46% |
| N#Cc1cccc(Nc2ncnc3c2cnn3-c2cccc(Cl)c2)c1 | inactive: 12.7% |
| Cc1ccc(Cl)cc1-n1ncc2c(NC3CCCCC3)ncnc21 | active: -78.2% |
| COc1cc2c(cc1OC)CN(C(=O)CN1C(=O)NC3(CCCCC3C)C1=O)CC2 (stereo not given) | inconclusive: -42.4% |
| O=C(CSc1nncn2c1cc1occc12)Nc1ccccc1C(F)(F)F | inconclusive: -48.2% |
| O=C(Nc1cccc(C(F)(F)F)c1)c1ccc(-c2ccc(F)c(F)c2)c2ccoc12 | active: -75.7% |
| O=C(c1ccco1)N(Cc1cccc([N+](=O)[O-])c1)c1ccc(Br)cc1 | inactive: -4.88% |
| Cc1ccc(N=C2NC(=O)CS2)cc1C | inactive: 58.4% |
| CCCCN(C(=S)NC(=O)c1cc(OC)c(OC)c(OC)c1)c1c(N)n(Cc2ccccc2)c(=O)[nH]c1=O | inconclusive: -45.9% |
| Fc1ccccc1OCCSc1ncnc2nc[nH]c12 | inactive: -6.83% |
| C=CCNC(=S)NCc1ccccc1OC | inconclusive: -44.4% |
| COc1ccc(CCn2c(C3CCCCC3)nc3c(c(=O)c4ccccc4n3C)c2=O)cc1OC | inconclusive: -48.5% |
